Results taken from article PMC7614608.

Chains of the proteins cited; added tags and fusions are not shown.
UniProt Q86W42: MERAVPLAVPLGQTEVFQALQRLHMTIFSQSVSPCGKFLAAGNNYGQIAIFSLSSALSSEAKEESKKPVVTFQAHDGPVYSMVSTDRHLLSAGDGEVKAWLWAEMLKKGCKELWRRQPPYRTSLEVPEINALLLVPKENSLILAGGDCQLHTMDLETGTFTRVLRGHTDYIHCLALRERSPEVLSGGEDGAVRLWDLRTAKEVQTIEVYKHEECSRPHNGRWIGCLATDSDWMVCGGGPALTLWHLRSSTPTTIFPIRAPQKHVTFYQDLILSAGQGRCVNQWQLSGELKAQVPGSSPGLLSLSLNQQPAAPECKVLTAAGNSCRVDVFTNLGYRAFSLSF
UniProt Q6I9Y2: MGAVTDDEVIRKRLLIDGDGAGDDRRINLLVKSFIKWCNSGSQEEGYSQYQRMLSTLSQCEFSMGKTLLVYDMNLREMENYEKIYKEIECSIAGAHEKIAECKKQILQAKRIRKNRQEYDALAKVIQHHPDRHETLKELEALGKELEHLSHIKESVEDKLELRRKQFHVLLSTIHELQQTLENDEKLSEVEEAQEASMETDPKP
UniProt Q13769: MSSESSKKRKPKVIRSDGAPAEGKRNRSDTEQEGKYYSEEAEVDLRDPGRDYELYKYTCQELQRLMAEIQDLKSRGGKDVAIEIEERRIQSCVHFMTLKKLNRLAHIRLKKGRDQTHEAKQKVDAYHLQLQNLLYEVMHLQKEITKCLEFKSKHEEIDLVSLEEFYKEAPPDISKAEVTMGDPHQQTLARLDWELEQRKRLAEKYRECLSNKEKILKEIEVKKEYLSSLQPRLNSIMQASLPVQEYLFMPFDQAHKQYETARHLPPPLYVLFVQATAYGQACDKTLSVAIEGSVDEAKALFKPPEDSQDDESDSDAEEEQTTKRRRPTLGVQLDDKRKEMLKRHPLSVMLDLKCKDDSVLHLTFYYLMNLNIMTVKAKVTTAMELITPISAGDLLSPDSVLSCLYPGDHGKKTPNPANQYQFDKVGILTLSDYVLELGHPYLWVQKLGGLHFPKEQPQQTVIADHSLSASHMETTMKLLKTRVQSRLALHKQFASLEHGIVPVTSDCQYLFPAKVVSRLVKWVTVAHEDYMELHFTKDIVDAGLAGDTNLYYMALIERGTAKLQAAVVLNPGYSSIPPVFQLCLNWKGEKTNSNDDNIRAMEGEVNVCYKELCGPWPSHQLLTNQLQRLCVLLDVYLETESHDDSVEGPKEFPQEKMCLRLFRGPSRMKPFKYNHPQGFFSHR
UniProt Q96J01: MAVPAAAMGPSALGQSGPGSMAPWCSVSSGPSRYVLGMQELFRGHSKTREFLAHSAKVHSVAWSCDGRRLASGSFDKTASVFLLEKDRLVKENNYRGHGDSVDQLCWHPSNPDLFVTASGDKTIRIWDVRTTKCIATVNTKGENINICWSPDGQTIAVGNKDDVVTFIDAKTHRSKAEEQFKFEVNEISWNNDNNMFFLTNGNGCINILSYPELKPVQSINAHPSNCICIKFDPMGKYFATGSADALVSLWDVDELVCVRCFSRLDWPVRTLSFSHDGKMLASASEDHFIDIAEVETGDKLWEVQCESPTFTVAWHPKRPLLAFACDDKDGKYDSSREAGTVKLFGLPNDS

Target: T1, THOC1-3C-AID-GFP (human) (UniProt Q96FV9)
T1 sequence: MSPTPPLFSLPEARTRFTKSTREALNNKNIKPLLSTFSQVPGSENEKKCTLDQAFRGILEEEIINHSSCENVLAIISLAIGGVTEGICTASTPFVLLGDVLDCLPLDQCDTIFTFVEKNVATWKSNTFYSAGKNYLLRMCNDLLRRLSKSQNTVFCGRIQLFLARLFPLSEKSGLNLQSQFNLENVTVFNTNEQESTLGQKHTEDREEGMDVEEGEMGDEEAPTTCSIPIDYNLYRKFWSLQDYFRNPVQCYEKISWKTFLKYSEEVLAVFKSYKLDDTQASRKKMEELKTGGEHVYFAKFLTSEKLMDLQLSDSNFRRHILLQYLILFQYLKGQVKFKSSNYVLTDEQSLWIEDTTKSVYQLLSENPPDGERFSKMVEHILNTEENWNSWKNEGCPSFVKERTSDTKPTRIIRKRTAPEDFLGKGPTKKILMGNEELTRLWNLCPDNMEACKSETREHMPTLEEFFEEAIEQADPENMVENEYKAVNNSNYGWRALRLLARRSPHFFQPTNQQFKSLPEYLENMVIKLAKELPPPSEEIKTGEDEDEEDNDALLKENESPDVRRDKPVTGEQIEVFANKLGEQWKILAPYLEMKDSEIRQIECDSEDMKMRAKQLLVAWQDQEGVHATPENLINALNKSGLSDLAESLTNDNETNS
Assay: affinity purification with mass spectrometry; THOC1-3C-AID-GFP K562 nuclear extract, mild benzonase, GFP-Trap resin, 3C elution, sucrose gradient; SDS-PAGE bands and peak fractions identified by mass spectrometry

| binding | Substance |
| --- | --- |
| binds | THOC6 (endogenous) (from UniProt Q86W42 1-341) |
| binds | THOC7 (endogenous) (from UniProt Q6I9Y2 1-204) |
| binds | THOC5 (endogenous) (from UniProt Q13769 1-683) |
| binds | THOC3 (endogenous) (from UniProt Q96J01 1-351) |

No constants are given. Whether binding was seen depends on the method and setting. In cells and extracts the contact can be indirect. A yes stands for co-enrichment or nearness to the bait. Other partners may have been found. Sequences can lack the tags named with a protein.
